Some of the results follow.
Columns and labels:
Assay in all cases: glycan array binding signal (z-score within array); higher = stronger binding
Settings in all cases: glycan notation: IUPAC condensed, linker removed
Neu5Ac(a2-8)Neu5Ac = biological target: Neu5Ac(a2-8)Neu5Ac
Outline: (§1)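 Columns mapping to the same glycan were averaged after glycan names were converted to IUPAC-condensed notation. The data come from 3228 arrays in the Consortium for Functional Glycomics database, limited to those with an available protein sequence. Binding is reported as a within-array Z-score averaged across arrays of one protein sequence and across linkers.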

[1] = biological target: Neu5Ac(a2-8)Neu5Ac(a2-3)Gal(b1-3)GalNAc(b1-4)[Neu5Ac(a2-3)]Gal(b1-4)Glc
Outline: as §1

[2] = biological target: Neu5Ac(a2-8)Neu5Ac(a2-3)Gal(b1-3)GalNAc(b1-4)[Neu5Ac(a2-8)Neu5Ac(a2-3)]Gal(b1-4)Glc
Outline: as §1

[3] = biological target: Neu5Ac(a2-8)Neu5Ac(a2-3)Gal(b1-4)Glc
Outline: as §1

[4] = biological target: Neu5Ac(a2-8)Neu5Ac(a2-3)Gal(b1-4)GlcNAc
Outline: as §1

[5] = biological target: Neu5Ac(a2-8)Neu5Ac(a2-3)[Gal(b1-3)GalNAc(b1-4)]Gal(b1-4)Glc
Outline: as §1

[6] = biological target: Neu5Ac(a2-8)Neu5Ac(a2-3)[GalNAc(b1-4)]Gal(b1-4)Glc
Outline: as §1

[7] = biological target: Neu5Ac(a2-8)Neu5Ac(a2-8)Neu5Ac
Outline: as §1

[8] = biological target: Neu5Ac(a2-8)Neu5Ac(a2-8)Neu5Ac(a2-3)Gal(b1-4)Glc
Outline: as §1

[9] = biological target: Neu5Ac(a2-8)Neu5Ac(a2-8)Neu5Ac(a2-3)[Gal(b1-3)GalNAc(b1-4)]Gal(b1-4)Glc
Outline: as §1

[10] = biological target: Neu5Ac(a2-8)Neu5Ac(a2-8)Neu5Ac(a2-3)[GalNAc(b1-4)]Gal(b1-4)Glc
Outline: as §1

[11] = biological target: Neu5Ac(a2-8)Neu5Ac(a2-8)Neu5Ac(a2-8)Neu5Ac(a2-3)[GalNAc(b1-4)]Gal(b1-4)Glc
Outline: as §1

[12] = biological target: Neu5Ac(a2-8)Neu5Gc(a2-3)Gal(b1-4)GlcNAc
Outline: as §1

[13] = biological target: Neu5Ac(b2-6)Gal(b1-4)GlcNAc
Outline: as §1

Neu5Ac(b2-6)GalNAc = biological target: Neu5Ac(b2-6)GalNAc
Outline: as §1

[14] = biological target: Neu5Ac9Ac(a2-3)Gal(b1-3)GlcNAc
Outline: as §1

[15] = biological target: Neu5Ac9Ac(a2-3)Gal(b1-4)GlcNAc
Outline: as §1

[16] = biological target: Neu5Ac9Ac(a2-6)Gal(b1-4)GlcNAc
Outline: as §1

[17] = biological target: Neu5Gc(a2-3)Gal(b1-3)GlcNAc
Outline: as §1

[18] = biological target: Neu5Gc(a2-3)Gal(b1-3)[Fuc(a1-4)]GlcNAc
Outline: as §1

Neu5Gc(a2-3)Gal(b1-4)Glc = biological target: Neu5Gc(a2-3)Gal(b1-4)Glc
Outline: as §1

[19] = biological target: Neu5Gc(a2-3)Gal(b1-4)GlcNAc
Outline: as §1

[20] = biological target: Neu5Gc(a2-3)Gal(b1-4)GlcNAc(b1-3)Gal(b1-4)GlcNAc(b1-2)Man(a1-3)[Neu5Gc(a2-3)Gal(b1-4)GlcNAc(b1-3)Gal(b1-4)GlcNAc(b1-2)Man(a1-6)]Man(b1-4)GlcNAc(b1-4)GlcNAc
Outline: as §1

[21] = biological target: Neu5Gc(a2-3)Gal(b1-4)[Fuc(a1-3)]GlcNAc
Outline: as §1

[22] = biological target: Neu5Gc(a2-6)Gal(b1-4)GlcNAc
Outline: as §1

Neu5Gc(a2-6)GalNAc = biological target: Neu5Gc(a2-6)GalNAc
Outline: as §1

[23] = biological target: Neu5Gc(a2-8)Neu5Ac(a2-3)Gal(b1-4)GlcNAc
Outline: as §1

[24] = biological target: Neu5Gc(a2-8)Neu5Gc(a2-3)Gal(b1-4)GlcNAc
Outline: as §1

[25] = biological target: Neu5Gc(a2-8)Neu5Gc(a2-3)Gal(b1-4)GlcNAc(b1-3)Gal(b1-4)GlcNAc
Outline: as §1

[26] = biological target: Neu5Gc(a2-8)Neu5Gc(a2-6)Gal(b1-4)GlcNAc
Outline: as §1

[27] = biological target: Neu5Gc(b2-6)Gal(b1-4)GlcNAc
Outline: as §1

B1: LlpB (Pseudomonas fluorescens) (protein)
chain: MGSSHHHHHHSSGLVPRGSHMASSGFRIILFNSANNGTAILPPRNCLVAGQYLESPSKRYKLILEADGNLRLYDNGVPIWVADSSVPYTYVDNRPNTNLVTCFYMQGSAFLVDRVGSRTWATIGDWIDGAADRAYLQVQDDGNVVVVDGVPRWARFGFTPAALPNRGVFYPDHGTGPLPSFPVWSWTF
glycan array binding signal (z-score) (Neu5Ac(a2-8)Neu5Ac): 0.018
glycan array binding signal (z-score) [1]: 2.81
glycan array binding signal (z-score) [2]: 1.61
glycan array binding signal (z-score) [3]: -0.364
glycan array binding signal (z-score) [4]: -1.02
glycan array binding signal (z-score) [5]: -1.03
glycan array binding signal (z-score) [6]: -0.424
glycan array binding signal (z-score) [7]: -0.564
glycan array binding signal (z-score) [8]: 1.01
glycan array binding signal (z-score) [9]: 1.6
glycan array binding signal (z-score) [10]: -1.26
glycan array binding signal (z-score) [11]: -0.352
glycan array binding signal (z-score) [12]: 0.37
glycan array binding signal (z-score) [13]: -0.881
glycan array binding signal (z-score) (Neu5Ac(b2-6)GalNAc): -1.02
glycan array binding signal (z-score) [14]: -0.008
glycan array binding signal (z-score) [15]: 0.332
glycan array binding signal (z-score) [16]: 0.437
glycan array binding signal (z-score) [17]: -0.538
glycan array binding signal (z-score) [18]: 0.078
glycan array binding signal (z-score) (Neu5Gc(a2-3)Gal(b1-4)Glc): 0.956
glycan array binding signal (z-score) [19]: -1.45
glycan array binding signal (z-score) [20]: 1.36
glycan array binding signal (z-score) [21]: -1.51
glycan array binding signal (z-score) [22]: 0.183
glycan array binding signal (z-score) (Neu5Gc(a2-6)GalNAc): -0.448
glycan array binding signal (z-score) [23]: 0.652
glycan array binding signal (z-score) [24]: -1.49
glycan array binding signal (z-score) [25]: -1.27
glycan array binding signal (z-score) [26]: 0.062
glycan array binding signal (z-score) [27]: 0.672
